Here are results for one substance from US11357864B2 (priority 2016, dated 2022).

The nature of the data set: general procedure: solution-phase peptide synthesis; HATU/DIEA. The conditions noted are these: coupling step, HCl salt.

With “Boc-Val-Dil-Dap-Phe-azidopropylsulfonamide (Ex. 3 step 5)”, the step yield is given as 65% yield.
